Test [1] deals with myc-tagged wild-type Sik2 (Drosophila salt-inducible kinase 2) (Drosophila) (UniProt Q9W532). As to the kind of experiment: co-IP; reciprocal: protein extracts of dpp-Gal4 larvae co-expressing HA-Hipk and a myc-tagged Sik; precipitated with anti-myc antibody (Sik2) or myc agarose beads (Sik3), control IgG or control agarose, Western blot.
In test [2] the target is myc-tagged wild-type Sik3-PA (Drosophila salt-inducible kinase 3) (Drosophila). Described as above.

No constants are given. Whether binding was seen depends on the method and setting. In cells and extracts the contact can be indirect. Binding can be weak; no strength is given. Tags and fused reporters may be left off the sequences shown.

B1: HA-tagged Hipk (Drosophila homeodomain-interacting protein kinase) (enzyme, UniProt Q9W0Q1 1-1340)
chain: MKTSYPPKASDFVDYAVAGGGGSGFCSGLGAGLSVRATSFYGDQTVTATTDGTRHQEQQQQQLQQQQQQHILRQPATSASTSSVAAAATSKRKRQTDCDCGCVDSYNSSHGPPVQQDSSAAAGAGSVGSKAGSGPGPDGIGPISSLKTAHTKVATSGGHANTQPPSKRSSSGADGDYQLVQHEVLYSLSAEYEVLEFLGRGTFGQVVKCWKRGTSEIVAIKILKNHPSYARQGQIEVSILSRLSQENADEFNFVRAFECFQHKNHTCLVFEMLEQNLYDFLKQNKFSPLPLKYIRPILEQVLTALLKLKQLGLIHADLKPENIMLVDPVRQPYRVKVIDFGSASHVSKTVCNTYLQSRYYRAPEIILGLPFCEAIDMWSLGCVVAELFLGWPLYPGSSEFDQIRYISQTQGLPTEHMLNSASKTSKFFYRDVDSTYPFWRLKTTEEHEAETNTKSKEARKYIFNCLDDIGQVNVPTDLEGGQLLAEKTDRREFIDLLKRMLTIDQERRLTPAEALNHSFTRLTHLVDYVYCNNVKASVQMMEVCRRGDFHTVQPASTLVTNFVPSSTENMTFTINNQLTSQVQRLVRDGRPLAYEGLYQIYNGRSVARQYPQTRTDSFQHQLVSNILCPPSYQTMPSPTKHVVVGSATMQPPLQVPPQQYVNVPVPVSMVEPTSGQRMLLTNRVQASGVAWPQTGRQMALVPSWPQQAPAHSLIVDSTPLFNVEEIYPKHHLNLPRNDLKKESPAHHIAKGNSYRVPRHEKKEHQQLSPVKKRVKESSPPHQQRYQRAAHVSPQYHAHHNCNYGNGSGYSASAGSVVASSAASSSNIVNGSSSSSHHHHVPVAHAQPYSSSSGHHIVSNCNANGGAGGAVVYQQPPAHAHQQHGQQPHPQSSQHPQHVKQPTITIHDTPSPTAVITISDSEDEGGEAGGAQVPVLKQRAHAQSQTSGSLLQHAPSSSCSRSSAHQQPHPHPQQQQQQQINYGDHDPEDARRRHHAAAAAAVGSPKHHHHQQQQQPAPPPQQQQQQYQPQPPPQQVLPQPQPSIKYEPGQSQKKRILAMAQSECGYQPQVPSQPSSSASLPHIPTKQEPAEFYPEYAAAPPQQLDTKRSSWAPTSSGSGVSALPLAHPKREAPSVAPISYVAPSVAPPLAHSKSSSASSSSSISAATAAAAAAAAAAAASVGPPSWGPPQVYRQPSQPPPGSVGLPGSTQPPPSSVAPHPHHHSHGHHHHQAGTPLGGSPSSTAAAALLQPDIYAQGDIYRRPTVFVSQAAPSYAYANRAVVAPPPAHNSSSRQVIPSHPLPAHIQIPTQYSQFGPLSPAQVAASKHAAHFAPTNIWYGAE
B1: the binding result in test [1] and in test [2] was “binds” each time.

The values above are taken from PMC10579798.
